Measurements published in article PMC11905051.
These are yes or no findings as the source states them, for the method shown. Binding seen in cells or lysates may run through a third protein. Some entries that bind do so weakly or less than the wild type.

Amino acid sequences for entries named in this document (tags omitted).
UniProt Q96FV2: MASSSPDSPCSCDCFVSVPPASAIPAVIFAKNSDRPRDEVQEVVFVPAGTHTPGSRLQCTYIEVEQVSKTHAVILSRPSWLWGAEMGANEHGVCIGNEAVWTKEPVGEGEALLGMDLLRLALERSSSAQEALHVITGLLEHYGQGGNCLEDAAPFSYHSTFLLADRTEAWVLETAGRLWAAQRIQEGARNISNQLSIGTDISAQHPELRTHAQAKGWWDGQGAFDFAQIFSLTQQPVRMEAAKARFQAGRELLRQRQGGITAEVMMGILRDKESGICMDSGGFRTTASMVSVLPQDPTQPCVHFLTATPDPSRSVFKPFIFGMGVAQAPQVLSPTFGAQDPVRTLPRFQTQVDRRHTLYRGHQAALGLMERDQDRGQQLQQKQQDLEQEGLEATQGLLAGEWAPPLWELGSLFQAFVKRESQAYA
UniProt P11142: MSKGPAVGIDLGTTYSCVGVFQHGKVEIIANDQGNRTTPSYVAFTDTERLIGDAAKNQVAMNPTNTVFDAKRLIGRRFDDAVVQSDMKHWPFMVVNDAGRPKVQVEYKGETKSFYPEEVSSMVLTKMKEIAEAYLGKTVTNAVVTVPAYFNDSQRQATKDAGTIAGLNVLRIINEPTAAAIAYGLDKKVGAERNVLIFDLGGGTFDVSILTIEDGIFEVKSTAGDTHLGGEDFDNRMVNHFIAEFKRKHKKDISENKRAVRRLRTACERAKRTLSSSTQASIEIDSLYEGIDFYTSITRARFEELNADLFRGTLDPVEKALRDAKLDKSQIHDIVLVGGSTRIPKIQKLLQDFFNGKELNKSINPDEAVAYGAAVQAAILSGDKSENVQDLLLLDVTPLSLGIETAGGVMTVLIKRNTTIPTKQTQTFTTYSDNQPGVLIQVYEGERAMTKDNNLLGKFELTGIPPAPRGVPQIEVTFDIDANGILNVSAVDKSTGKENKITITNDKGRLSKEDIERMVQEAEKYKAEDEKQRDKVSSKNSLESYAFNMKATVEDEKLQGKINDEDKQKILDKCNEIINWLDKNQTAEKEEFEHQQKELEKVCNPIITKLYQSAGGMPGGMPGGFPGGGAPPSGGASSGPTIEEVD
UniProt Q8NEZ4: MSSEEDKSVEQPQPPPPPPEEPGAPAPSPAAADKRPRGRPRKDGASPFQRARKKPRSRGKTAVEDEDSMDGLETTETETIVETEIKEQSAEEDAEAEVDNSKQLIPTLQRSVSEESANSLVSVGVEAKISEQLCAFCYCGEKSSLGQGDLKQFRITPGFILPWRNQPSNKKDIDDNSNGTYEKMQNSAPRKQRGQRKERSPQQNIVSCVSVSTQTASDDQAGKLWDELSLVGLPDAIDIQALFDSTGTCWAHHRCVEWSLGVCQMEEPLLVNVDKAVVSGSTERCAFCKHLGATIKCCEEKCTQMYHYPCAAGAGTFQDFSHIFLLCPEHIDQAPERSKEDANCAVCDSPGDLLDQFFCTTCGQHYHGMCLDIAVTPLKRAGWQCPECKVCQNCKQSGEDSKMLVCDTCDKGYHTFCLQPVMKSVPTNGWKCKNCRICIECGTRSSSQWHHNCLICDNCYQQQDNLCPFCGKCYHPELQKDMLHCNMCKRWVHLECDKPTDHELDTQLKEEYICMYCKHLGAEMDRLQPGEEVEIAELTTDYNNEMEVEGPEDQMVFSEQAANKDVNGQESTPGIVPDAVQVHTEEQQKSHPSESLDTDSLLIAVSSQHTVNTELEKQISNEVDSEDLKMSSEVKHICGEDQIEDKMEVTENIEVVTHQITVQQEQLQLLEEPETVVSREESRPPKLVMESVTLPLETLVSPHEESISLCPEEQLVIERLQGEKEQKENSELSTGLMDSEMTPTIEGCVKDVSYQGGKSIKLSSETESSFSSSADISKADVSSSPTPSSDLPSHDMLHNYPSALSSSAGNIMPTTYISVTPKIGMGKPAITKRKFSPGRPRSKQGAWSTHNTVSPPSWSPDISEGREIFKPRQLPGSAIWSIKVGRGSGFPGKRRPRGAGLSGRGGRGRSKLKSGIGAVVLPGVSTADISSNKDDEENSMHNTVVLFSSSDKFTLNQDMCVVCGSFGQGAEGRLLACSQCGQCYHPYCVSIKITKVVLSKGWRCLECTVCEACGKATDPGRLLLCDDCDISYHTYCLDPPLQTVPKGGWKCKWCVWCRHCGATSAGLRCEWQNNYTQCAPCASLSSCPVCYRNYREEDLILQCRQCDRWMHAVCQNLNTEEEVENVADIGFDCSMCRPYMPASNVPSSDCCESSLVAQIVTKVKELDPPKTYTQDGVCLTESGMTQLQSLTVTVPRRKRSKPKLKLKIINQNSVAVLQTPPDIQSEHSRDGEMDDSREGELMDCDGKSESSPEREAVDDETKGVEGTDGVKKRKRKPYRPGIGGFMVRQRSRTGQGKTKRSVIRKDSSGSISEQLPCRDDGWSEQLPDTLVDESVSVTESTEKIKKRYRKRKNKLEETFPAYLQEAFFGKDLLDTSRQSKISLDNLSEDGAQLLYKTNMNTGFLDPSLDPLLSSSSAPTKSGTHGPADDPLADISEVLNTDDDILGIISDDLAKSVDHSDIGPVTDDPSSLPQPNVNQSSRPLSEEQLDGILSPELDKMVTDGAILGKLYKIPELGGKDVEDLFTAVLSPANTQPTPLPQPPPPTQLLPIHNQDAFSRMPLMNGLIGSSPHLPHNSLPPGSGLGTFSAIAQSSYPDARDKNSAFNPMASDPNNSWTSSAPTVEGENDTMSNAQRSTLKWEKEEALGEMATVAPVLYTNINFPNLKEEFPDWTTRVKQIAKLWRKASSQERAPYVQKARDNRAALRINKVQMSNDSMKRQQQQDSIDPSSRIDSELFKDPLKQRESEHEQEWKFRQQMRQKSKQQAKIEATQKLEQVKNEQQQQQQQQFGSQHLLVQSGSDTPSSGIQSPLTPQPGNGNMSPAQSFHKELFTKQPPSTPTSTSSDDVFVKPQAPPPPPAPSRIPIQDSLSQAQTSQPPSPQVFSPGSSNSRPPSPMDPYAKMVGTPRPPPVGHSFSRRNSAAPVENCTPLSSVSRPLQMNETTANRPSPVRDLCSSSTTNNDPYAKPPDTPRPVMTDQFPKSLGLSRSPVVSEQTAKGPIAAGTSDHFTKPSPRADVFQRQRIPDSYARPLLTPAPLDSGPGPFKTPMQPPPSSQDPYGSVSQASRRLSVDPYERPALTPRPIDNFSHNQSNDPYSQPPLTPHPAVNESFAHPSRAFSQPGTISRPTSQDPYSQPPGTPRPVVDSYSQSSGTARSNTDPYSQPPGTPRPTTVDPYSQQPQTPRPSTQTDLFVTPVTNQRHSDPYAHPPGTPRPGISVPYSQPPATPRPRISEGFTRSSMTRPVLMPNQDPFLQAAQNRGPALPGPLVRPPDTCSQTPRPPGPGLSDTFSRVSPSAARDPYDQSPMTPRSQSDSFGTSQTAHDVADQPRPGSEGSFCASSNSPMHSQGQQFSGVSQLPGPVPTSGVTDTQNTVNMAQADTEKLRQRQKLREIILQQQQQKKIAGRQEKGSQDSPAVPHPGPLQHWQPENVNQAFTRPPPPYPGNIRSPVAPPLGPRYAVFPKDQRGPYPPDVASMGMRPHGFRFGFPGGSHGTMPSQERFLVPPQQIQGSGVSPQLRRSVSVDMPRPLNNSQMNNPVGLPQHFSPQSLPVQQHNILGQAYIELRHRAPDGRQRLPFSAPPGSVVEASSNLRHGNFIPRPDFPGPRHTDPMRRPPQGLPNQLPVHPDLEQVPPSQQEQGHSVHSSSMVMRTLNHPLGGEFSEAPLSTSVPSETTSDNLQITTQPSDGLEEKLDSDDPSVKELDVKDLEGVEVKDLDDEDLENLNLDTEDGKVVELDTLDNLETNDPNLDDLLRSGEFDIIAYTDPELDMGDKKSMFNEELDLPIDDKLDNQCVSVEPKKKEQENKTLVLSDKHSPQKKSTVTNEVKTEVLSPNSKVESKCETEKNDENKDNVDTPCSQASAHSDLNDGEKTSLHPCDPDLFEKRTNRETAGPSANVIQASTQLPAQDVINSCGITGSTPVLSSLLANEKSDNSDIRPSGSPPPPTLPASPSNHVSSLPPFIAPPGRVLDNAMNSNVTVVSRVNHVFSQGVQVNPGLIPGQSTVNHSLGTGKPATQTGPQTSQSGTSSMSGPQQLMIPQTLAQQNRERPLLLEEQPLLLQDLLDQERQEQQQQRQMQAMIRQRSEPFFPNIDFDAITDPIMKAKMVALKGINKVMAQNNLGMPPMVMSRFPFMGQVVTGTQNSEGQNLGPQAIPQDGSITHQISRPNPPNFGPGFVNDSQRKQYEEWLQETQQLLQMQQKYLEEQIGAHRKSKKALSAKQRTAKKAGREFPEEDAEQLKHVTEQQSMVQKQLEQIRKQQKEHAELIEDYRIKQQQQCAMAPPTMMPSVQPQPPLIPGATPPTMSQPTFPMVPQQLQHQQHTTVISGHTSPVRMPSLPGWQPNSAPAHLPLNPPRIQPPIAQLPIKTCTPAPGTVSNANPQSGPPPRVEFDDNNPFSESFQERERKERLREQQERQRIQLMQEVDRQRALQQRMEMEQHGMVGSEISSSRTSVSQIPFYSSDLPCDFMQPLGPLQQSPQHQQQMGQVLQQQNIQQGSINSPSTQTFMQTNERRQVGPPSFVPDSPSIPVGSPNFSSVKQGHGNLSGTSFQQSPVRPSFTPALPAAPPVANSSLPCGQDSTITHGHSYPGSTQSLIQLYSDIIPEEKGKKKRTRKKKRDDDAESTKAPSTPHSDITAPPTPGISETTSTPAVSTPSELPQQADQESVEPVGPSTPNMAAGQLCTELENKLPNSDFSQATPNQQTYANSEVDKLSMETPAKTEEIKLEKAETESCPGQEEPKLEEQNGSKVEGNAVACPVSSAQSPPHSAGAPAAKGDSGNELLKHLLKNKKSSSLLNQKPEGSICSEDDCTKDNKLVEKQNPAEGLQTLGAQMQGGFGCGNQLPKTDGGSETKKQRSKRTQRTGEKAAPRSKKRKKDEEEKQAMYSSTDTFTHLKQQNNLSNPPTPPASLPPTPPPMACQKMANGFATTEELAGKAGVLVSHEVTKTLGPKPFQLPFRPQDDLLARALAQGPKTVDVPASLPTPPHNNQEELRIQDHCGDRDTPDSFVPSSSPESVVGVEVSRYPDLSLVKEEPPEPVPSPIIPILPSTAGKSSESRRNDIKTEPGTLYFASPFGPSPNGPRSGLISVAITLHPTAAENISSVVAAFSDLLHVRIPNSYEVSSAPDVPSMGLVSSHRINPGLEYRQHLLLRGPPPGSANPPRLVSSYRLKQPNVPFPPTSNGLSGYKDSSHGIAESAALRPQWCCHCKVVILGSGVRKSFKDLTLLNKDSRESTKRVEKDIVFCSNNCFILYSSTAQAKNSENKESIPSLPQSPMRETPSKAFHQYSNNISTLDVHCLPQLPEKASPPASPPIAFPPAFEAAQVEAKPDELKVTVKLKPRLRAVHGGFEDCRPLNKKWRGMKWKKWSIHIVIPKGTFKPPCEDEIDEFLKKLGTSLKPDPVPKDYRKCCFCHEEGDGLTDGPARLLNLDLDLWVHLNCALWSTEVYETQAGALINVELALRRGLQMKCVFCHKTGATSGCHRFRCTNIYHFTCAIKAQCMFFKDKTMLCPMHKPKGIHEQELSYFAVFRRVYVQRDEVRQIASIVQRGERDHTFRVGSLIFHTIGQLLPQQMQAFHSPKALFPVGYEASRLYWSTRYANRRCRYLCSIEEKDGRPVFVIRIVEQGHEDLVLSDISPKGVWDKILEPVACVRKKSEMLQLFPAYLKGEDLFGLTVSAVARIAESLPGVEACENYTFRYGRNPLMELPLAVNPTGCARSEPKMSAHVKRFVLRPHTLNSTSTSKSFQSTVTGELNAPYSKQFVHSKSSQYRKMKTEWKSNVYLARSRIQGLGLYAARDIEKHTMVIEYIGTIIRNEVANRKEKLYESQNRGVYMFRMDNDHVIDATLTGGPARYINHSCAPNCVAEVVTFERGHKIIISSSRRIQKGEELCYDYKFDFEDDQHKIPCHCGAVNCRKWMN
UniProt O95816: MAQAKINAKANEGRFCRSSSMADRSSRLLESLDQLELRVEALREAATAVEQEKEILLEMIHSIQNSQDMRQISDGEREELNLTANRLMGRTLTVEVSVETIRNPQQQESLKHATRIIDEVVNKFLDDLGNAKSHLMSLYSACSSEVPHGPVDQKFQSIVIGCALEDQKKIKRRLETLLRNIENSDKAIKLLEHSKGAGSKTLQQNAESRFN
UniProt Q9UNE7: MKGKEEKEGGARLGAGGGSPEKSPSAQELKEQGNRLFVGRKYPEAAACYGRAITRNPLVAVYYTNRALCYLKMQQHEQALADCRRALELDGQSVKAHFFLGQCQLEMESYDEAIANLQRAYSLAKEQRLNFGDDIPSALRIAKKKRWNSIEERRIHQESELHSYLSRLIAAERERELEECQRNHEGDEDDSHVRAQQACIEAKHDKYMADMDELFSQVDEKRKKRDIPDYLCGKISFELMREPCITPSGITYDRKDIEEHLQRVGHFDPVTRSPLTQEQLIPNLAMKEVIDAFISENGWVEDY

Key:
Experiment in all cases: co-IP; HEK293T and TNBC cells transfected with the indicated expression vectors or expressing HA-SCRN2; NP40 lysis buffer; extracts immunoprecipitated with the indicated antibodies at 4 °C overnight, washed thrice, immunoblotting; Figure 2L with or without serum starvation for 24 h; Figure 4M with SCRN2 co-expressed
[1] = target: HA-SCRN2 (secernin-2) (human) (UniProt Q96FV2)
[2] = target: HSPA8 (heat shock protein family A member 8) (human (endogenous in HEK293T)) (UniProt P11142)
[3] = target: Histone-lysine N-methyltransferase 2C (KMT2C) (human) (UniProt Q8NEZ4)

Row | binding [1] | Substance | further results
1 | binds | BAG family molecular chaperone regulator 2 (BAG2) (from UniProt O95816 1-211) | –
2 | – | HA-SCRN2 (secernin-2) (from UniProt Q96FV2 1-425) | binding [2]: binds
3 | – | E3 ubiquitin-protein ligase CHIP (from UniProt Q9UNE7 1-303) (enzyme) | binding [3]: binds
4 | binds | HSPA8 (heat shock protein family A member 8) (from UniProt P11142 1-646) | –
